Data on four substances can be found in PMC3380016.

Amino acid sequences for entries named in this document (tags omitted). A change or cut given only in a name is not applied to a line headed by its entry. Chains listed by the source or under a name are the forms on record and can include a tag or linker. Residues count along the entry.
UniProt Q03135: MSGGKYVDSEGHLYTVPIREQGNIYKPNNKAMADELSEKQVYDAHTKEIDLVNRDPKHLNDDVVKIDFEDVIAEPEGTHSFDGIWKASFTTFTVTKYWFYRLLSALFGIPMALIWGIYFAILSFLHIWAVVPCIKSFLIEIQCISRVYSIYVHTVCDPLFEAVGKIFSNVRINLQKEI
GST fused to residues 82 to 101 of caveolin-1: residues 82-101 of Q03135
UniProt Q07812: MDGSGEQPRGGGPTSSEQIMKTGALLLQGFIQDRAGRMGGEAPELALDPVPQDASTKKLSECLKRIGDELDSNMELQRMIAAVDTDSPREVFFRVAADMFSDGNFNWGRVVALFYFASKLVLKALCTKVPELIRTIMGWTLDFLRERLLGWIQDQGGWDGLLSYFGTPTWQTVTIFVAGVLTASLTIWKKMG
UniProt P12956: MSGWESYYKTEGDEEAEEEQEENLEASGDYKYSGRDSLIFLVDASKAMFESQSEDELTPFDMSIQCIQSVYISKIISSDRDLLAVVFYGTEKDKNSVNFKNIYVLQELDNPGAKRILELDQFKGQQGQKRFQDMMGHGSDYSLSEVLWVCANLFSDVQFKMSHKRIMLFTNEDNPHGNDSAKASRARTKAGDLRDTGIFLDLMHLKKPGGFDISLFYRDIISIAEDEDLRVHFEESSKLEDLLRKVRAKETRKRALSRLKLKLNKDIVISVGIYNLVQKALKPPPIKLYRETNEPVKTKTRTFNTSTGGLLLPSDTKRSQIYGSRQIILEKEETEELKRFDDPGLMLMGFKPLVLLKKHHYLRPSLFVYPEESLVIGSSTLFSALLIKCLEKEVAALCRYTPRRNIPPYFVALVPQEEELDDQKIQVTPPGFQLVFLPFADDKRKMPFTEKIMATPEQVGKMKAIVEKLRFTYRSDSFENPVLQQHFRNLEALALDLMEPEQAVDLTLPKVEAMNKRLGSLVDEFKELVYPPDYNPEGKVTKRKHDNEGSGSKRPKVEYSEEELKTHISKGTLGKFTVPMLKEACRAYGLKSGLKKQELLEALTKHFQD
UniProt P23475: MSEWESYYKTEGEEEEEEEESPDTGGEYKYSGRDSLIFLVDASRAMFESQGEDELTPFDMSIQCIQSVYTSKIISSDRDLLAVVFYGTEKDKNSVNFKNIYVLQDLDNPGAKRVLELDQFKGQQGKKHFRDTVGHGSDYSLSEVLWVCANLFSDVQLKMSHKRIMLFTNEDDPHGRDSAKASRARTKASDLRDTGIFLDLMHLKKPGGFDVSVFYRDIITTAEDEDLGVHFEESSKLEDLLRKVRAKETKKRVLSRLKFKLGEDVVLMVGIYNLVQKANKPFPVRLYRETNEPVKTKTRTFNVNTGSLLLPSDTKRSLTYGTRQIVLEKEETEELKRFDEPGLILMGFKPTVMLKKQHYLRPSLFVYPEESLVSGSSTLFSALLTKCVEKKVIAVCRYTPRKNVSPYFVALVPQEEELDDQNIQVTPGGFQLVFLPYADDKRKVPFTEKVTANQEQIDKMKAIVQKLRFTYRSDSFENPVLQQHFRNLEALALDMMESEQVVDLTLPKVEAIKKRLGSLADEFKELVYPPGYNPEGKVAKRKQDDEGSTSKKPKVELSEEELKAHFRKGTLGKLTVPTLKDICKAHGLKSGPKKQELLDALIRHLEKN

These are yes or no findings as the source states them, for the method shown. Binding seen in cells or lysates may run through a third protein. Some results given as binding are weak or reduced against the parent protein; the word gives no strength.

Assay [1] has as its target caveolin-1 (human (endogenous in HCT116)) (UniProt Q03135). Nature of the assay: co-IP; HCT116 cells transfected with WT Ku70-HA or Φ→A Ku70-HA, untreated or treated with 5-FU for 24 h; immunoprecipitation with anti-caveolin-1, blots with anti-HA, anti-Bax and anti-caveolin-1.
Assay [2] has the same target. The experiment in a line: co-IP; HCT116 cells treated with 5-FU or etoposide for 24 hours; lysis in 10 mM Tris pH 8.0, 150 mM NaCl, 5 mM EDTA, 1% Triton X-100, 60 mM octyl glucoside; immunoprecipitation with anti-caveolin-1, blots with anti-Ku70, anti-Bax and anti-caveolin-1.
For assay [3], the target named is Bax (human (endogenous in HCT116)) (UniProt Q07812). The experiment in a line: co-IP; HCT116 cells (untransfected or transfected with scrambled or caveolin-1 siRNA), untreated or treated with 5-FU or etoposide for 24 hours; Bax immunoprecipitation in 0.1 mM Hepes and 1% CHAPS; blots with anti-Ku70, anti-caveolin-1 and anti-Bax.
The target in assay [4] is caveolin-1 (human (endogenous in HCT116)) (UniProt Q03135). Nature of the assay: co-IP; untreated (resting) HCT116 cells; immunoprecipitation with anti-caveolin-1, blot with anti-Ku70.
For assay [5], the target named is Bax (human (endogenous in HCT116)) (UniProt Q07812). Nature of the assay: co-IP; HCT116 cells transfected with WT Ku70-HA or Φ→A Ku70-HA, untreated or treated with 5-FU for 24 h; immunoprecipitation with anti-Bax, blots with anti-HA and anti-Bax.
For assay [6], the target named is GST fused to full-length caveolin-1 (UniProt Q03135). The experiment in a line: pull-down; GST-Cav-1 fusion proteins on glutathione-agarose beads; pre-cleared lysates of HCT116 cells over-expressing HA-Ku70 (wild type or Φ→A) diluted in buffer A (10 mM Tris pH 8.0, 0.1% Tween 20), overnight at 4°C; beads washed 6 times with PBS; only the target purified.
For assay [7], the target named is GST fused to residues 82 to 101 of caveolin-1 (UniProt Q03135). The description is as above.

On to Bax (from UniProt Q07812 1-192), for which the binding entry in assay [1] and in assay [2] was “binds” throughout.

On to Ku70 (from UniProt P12956 1-609), for which the binding result in assay [3] is “binds”; in assay [2], “binds”; in assay [4], “binds weakly”.

For caveolin-1 (from UniProt Q03135 1-178), the binding entry in assay [3] is on record as “binds”.

Take “wild type Ku70-HA (from UniProt P23475 1-608)”: the binding entry in assay [1], in assay [5], in assay [6] and in assay [7] was “binds” each time.
